# The source gives many values for each of these; only a part stands here.
# System: patients with evidence of coronary artery disease
# Experiment: dal-PLAQUE-2: change in carotid intima-media thickness (B-mode ultrasound) by ADCY9 genotype
# Type: in vivo, human
# Excerpt: The dal-PLAQUE-2 study (Tardif J C et al, Circulation Cardiovascular imaging 2011; 4:319-33) was a phase 3b multicenter, double-blind, randomized, placebo-controlled, parallel group trial designed to evaluate the effect of dalcetrapib on atherosclerotic disease progression in patients with evidence of coronary artery disease and carotid intima media thickness of at least 0.65 mm in the far wall of the common carotid arteries, as assessed by B-mode ultrasonography. A total of 931 patients were randomized to receive dalcetrapib 600 mg daily or matching placebo with intended treatment duration of 24 months. However, the trial was terminated prematurely concurrent with the termination of dal OUTCOMES (the latter due to futility). Patients continued study medication until they returned for follow-up carotid imaging at 12 months. Carotid B-mode ultrasound recordings at baseline, month 6, and month 12 were analyzed centrally at the core laboratory of the Montreal Heart Institute. Intima-media thickness (IMT) was analyzed on the far wall of the common carotid arteries. A segment of 10 mm in length of the common carotid artery was analyzed on serial examinations using an automated edge detection software (Carotid Analyzer, Medical Imaging Applications, Coralville, Iowa). Among the 411 participants in the dal-PLAQUE-2 trial who consented to the genetic study, 386 had imaging measures at baseline, 6 months and 12 months (194 and 192 in the dalcetrapib and placebo arms respectively). DNA was extracted from whole blood. The research protocols were approved by the relevant institutional review boards or ethics committees and all human participants gave written informed consent.
# All acquired carotid ultrasound recordings were analyzed at the core laboratory of the Montreal Heart Institute by experienced technicians supervised by a physician. Images were required to meet quality and inclusion and exclusion criteria for eligibility prior to random assignment to study treatment. The methods for carotid intima-media thickness analysis included side-by-side viewing of baseline and follow-up studies.
# Carotid arterial wall segments were assessed in a longitudinal view, perpendicular to the ultrasound beam, with a horizontal display of the arterial image in order to view the interfaces between blood and vascular structures on the longest possible segment. The localization of the end of the common carotid artery was used as the landmark in repositioning and analyzing comparative length of segments in baseline and follow-up studies. Intima-media thickness was analyzed on the far wall of the right and left common carotid arteries, to reduce variability of measurements. The average of the mean intima-media thickness values of the right and left common carotid arteries was used. A matched segment of 10 mm in length of the common carotid artery was analyzed on serial examinations (baseline, 6 months and 12 months), starting 5 mm proximal to the carotid bifurcation. The edge detection software Carotid Analyzer (Medical Imaging Applications LLC, Coralville, Iowa) was used to analyze intima-media thickness using the automated option. Two sets of carotid artery borders were identified: First, the media-adventitia borders were determined and verified by the reader. When required, their locations were semi-automatically modified to the correct location. When these borders were approved, the lumen-intima boundaries were automatically detected using the media-adventitia borders for guidance. Frames from looped sequences of intima-media thickness were selected for reading, and poor quality outlier frames were removed from the analysis when required.
# For the dal-Plaque-2 population, mixed regression models for repeated measures analysis were tested in SAS software. The dal-Plaque-2 tested endpoint was the mean of IMT measures of common carotid arteries at the 6-month and the 12-month visits, using the baseline measure as covariate. […]
smiles,measurement,setting,value
"CCC(CC)CC1(C(=O)Nc2ccccc2SC(=O)C(C)C)CCCCC1 [dalcetrapib, thioisobutyric acid S-(2-{[1-(2-ethyl-butyl)-cyclohexanecarbonyl]-amino}-phenyl) ester]","Change from baseline in carotid intima-media thickness, Mean","rs1967309, heterozygotes, M06",−0.003 mm
same,"Change from baseline in carotid intima-media thickness, Mean","rs1967309, homozygotes for minor allele, M06",−0.005 mm
same,"Change from baseline in carotid intima-media thickness, Mean","rs2283497, homozygotes for major allele, M06",0.001 mm
same,"Change from baseline in carotid intima-media thickness, Mean","rs2283497, homozygotes for major allele, M12",−0.007 mm
same,"Change from baseline in carotid intima-media thickness, Mean","rs2531967, homozygotes for major allele, M06",0.005 mm
same,"Change from baseline in carotid intima-media thickness, Mean","rs2531967, homozygotes for major allele, M12",0.004 mm
same,"Change from baseline in carotid intima-media thickness, Mean","rs3730119, homozygotes for major allele, M06",−0.000 mm
same,"Change from baseline in carotid intima-media thickness, Mean","rs3730119, homozygotes for major allele, M12",−0.002 mm
same,"Change from baseline in carotid intima-media thickness, Mean","rs4786454, homozygotes for major allele, M06",0.004 mm
same,"Change from baseline in carotid intima-media thickness, Mean","rs4786454, homozygotes for major allele, M12",0.003 mm
same,"Change from baseline in carotid intima-media thickness, Mean","rs8061182, homozygotes for major allele, M06",−0.009 mm
same,"Change from baseline in carotid intima-media thickness, Mean","rs8061182, homozygotes for major allele, M12",−0.014 mm
same,"Change from baseline in carotid intima-media thickness, Mean","rs13337675, homozygotes for major allele, M06",−0.003 mm
same,"Change from baseline in carotid intima-media thickness, Mean","rs13337675, homozygotes for major allele, M12",−0.005 mm
same,"Change from baseline in carotid intima-media thickness, Mean","rs17136707, homozygotes for major allele, M06",0.002 mm
same,"Change from baseline in carotid intima-media thickness, Mean","rs17136707, homozygotes for major allele, M12",−0.001 mm
same,"Change from baseline in carotid intima-media thickness, Mean","rs74702385, homozygotes for major allele, M06",0.002 mm
same,"Change from baseline in carotid intima-media thickness, Mean","rs74702385, homozygotes for major allele, M12",−0.001 mm
same,"Change from baseline in carotid intima-media thickness, Mean","rs111590482, homozygotes for major allele, M06",0.002 mm
same,"Change from baseline in carotid intima-media thickness, Mean","rs111590482, homozygotes for major allele, M12",−0.001 mm
